In assay [1] the target is EvgS-Cyt (entire cytoplasmic region of the Escherichia coli histidine kinase EvgS, residues 553 to 1193) (Escherichia coli) (UniProt P30855). As to the kind of experiment: AUC; purified protein dialysed against 50 mM Tris-HCl pH 5.6; OD280 of 1 (printed as 0.1 μM protein); 40,000 rpm, 20°C; 200 scans; analysed with Sedfit; monomer to dimer; both purified.
The target in assay [2] is EvgS-Cyt S600I (cytoplasmic domain of EvgS containing the activating S600I mutation in the PAS domain) (Escherichia coli) (UniProt P30855). As to the kind of experiment: AUC; purified protein dialysed against 50 mM Tris-HCl pH 7; OD280 of 1 (printed as 0.1 μM protein); 40,000 rpm, 20°C; 200 scans; analysed with Sedfit; monomer to dimer; both purified.
Assay [3] shares this target. As to the kind of experiment: AUC; purified protein dialysed against 50 mM Tris-HCl pH 5.6; OD280 of 1 (printed as 0.1 μM protein); 40,000 rpm, 20°C; 200 scans; analysed with Sedfit; monomer to dimer; both purified.

Numbering of substitutions follows the chain as printed. Names and notes keep the numbering of the source. Results are given in words; binding and its absence hold for the method and conditions named. For part of these data: Sequences can lack the tags named with a protein.

B1: EvgS-Cyt (entire cytoplasmic region of the Escherichia coli histidine kinase EvgS, residues 553 to 1193) (domain or fragment, UniProt P30855 553-1193, looked up)
chain: WGFYLLRSVRRRKVIQGDLENQISFRKALSDSLPNPTYVVNWQGNVISHNSAFEHYFTADYYKNAMLPLENSDSPFKDVFSNAHEVTAETKENRTIYTQVFEIDNGIEKRCINHWHTLCNLPASDNAVYICGWQDITETRDLINALEVEKNKAIKATVAKSQFLATMSHEIRTPISSIMGFLELLSGSGLSKEQRVEAISLAYATGQSLLGLIGEILDVDKIESGNYQLQPQWVDIPTLVQNTCHSFGAIAASKSIALSCSSTFPEHYLVKIDPQAFKQVLSNLLSNALKFTTEGAVKITTSLGHIDDNHAVIKMTIMDSGSGLSQEEQQQLFKRYSQTSAGRQQTGSGLGLMICKELIKNMQGDLSLESHPGIGTTFTITIPVEISQQVATVEAKAEQPITLPEKLSILIADDHPTNRLLLKRQLNLLGYDVDEATDGVQALHKVSMQHYDLLITDVNMPNMDGFELTRKLREQNSSLPIWGLTANAQANEREKGLSCGMNLCLFKPLTLDVLKTHLSQLHQVAHIAPQYRHLDIEALKNNTANDLQLMQEILMTFQHETHKDLPAAFQALEAGDNRTFHQCIHRIHGAANILNLQKLINISHQLEITPVSDDSKPEILQLLNSVKEHIAELDQEIAVFC
notes: EvgS sensor histidine kinase, Escherichia coli, cytoplasmic domains comprising amino acid residues 553 to 1193; expected monomer mass printed as 72.3 kDa; Amplified from pBADEvgS and cloned NdeI-HindIII into a modified pET41c in which the GST tag is replaced by a C-terminal His8 tag; By the forward primer a start methionine precedes R553 (ATGCGCTCAGTTCGTCGTCGT); No cleavage of the tag is …
Turning to B1, the binding result in assay [1] was “no binding (condition: at pH 5.6)”.

B2: EvgS-Cyt S600I (cytoplasmic domain of EvgS containing the activating S600I mutation in the PAS domain) (domain or fragment, UniProt P30855 553-1193)
chain: B1 chain with S48I
For B2, the binding result in assay [2] and in assay [3] was “no binding (tested: 0.1 μM)” each time.

The values above are taken from PMC5573083, “Structural and Functional Analysis of the Escherichia coli Acid-Sensing Histidine Kinase EvgS” (Journal of Bacteriology, 2017).
